From PubChem BioAssay
Several values for one entry are separate records, joined by “and”; a condition that tells them apart may be missing. Equal entries are not always repeated. The shares of active, inactive and inconclusive entries below differ from those in the screen. For some assays here: Potencies beside an inconclusive call are fits to weak or partial responses and may not hold up. Activity calls are given as the source filed them. Unless noted, cut-off not given; nearly all actives show AC50 up to about 26 µM.

Protein sequences, listed by entry. Tags and fused reporters are not part of them.
UniProt P08183, whole entry, looked up: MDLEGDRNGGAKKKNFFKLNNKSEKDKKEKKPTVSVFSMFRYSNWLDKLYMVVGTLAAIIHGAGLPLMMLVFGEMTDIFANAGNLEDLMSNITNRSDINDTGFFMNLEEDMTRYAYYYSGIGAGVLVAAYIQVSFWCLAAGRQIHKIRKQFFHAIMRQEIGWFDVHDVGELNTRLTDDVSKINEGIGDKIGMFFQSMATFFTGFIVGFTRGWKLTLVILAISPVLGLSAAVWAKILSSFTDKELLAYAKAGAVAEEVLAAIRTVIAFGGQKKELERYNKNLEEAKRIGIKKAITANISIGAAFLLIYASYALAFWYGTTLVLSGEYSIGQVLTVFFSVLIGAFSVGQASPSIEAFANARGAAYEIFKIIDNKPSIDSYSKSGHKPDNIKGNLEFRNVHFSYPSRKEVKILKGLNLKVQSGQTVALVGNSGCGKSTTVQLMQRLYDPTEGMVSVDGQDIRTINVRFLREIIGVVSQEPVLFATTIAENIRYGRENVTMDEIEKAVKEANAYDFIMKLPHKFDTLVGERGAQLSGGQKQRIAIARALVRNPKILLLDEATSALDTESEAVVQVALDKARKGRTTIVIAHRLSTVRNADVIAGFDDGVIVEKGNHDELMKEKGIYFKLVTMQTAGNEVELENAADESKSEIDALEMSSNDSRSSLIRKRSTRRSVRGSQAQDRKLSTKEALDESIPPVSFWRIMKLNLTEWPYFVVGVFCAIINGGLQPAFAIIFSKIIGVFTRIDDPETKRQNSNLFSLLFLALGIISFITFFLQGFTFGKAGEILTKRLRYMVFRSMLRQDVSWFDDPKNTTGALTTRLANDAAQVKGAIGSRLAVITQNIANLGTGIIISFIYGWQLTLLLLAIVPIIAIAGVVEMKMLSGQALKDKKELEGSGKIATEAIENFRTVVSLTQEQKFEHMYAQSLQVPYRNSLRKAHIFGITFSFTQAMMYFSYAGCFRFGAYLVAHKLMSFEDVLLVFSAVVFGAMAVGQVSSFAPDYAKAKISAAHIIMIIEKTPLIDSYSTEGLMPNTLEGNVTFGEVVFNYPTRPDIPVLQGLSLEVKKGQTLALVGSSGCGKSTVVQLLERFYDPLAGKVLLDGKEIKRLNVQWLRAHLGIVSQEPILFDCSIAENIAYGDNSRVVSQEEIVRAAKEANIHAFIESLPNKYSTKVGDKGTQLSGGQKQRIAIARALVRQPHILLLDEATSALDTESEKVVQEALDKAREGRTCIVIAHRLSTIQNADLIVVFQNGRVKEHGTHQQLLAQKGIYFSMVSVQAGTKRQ

What was measured:
[1] = growth inhibition of DIPG glioma cells, dose response, cell-based, SU-DIPG-XVII, MIPE5.0, CellTiter-Glo, qHTS (AID 1347060); conditions: SU-DIPG-XVII viability, CellTiter-Glo ATP luminescence;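 on AC50: cells exposed to compound for 48 hours before viability readout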
[2] = growth inhibition of DIPG glioma cells, dose response, cell-based, SU-DIPG-XIII, MIPE4.0, CellTiter-Glo, qHTS (AID 1347061; cut-off not given, nearly all actives have AC50 up to about 37 µM;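 further: cells exposed to compound for 48 hours before readout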); conditions: SU-DIPG-XIII viability, CellTiter-Glo ATP luminescence
[3] = growth inhibition of DIPG glioma cells, dose response, cell-based, SU-DIPG-XIII, MIPE5.0, CellTiter-Glo, qHTS (AID 1347064; cut-off not given, nearly all actives have AC50 up to about 23 µM;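 on AC50: cells exposed to compound for 48 hours before the viability read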); conditions: SU-DIPG-XIII viability, CellTiter-Glo ATP luminescence
[4] = viability loss in pontine glioma line – cell-based, SU-DIPG-XXV, MIPE5.0, CellTiter-Glo, qHTS, dose response (AID 1347065); conditions: CellTiter-Glo ATP luminescence;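 further: cells exposed to compound for 48 hours before ATP readout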
[5] = SU-DIPG-VI glioma cell viability, MIPE4.0 library, CellTiter-Glo luminescence, qHTS (AID 1347066; cut-off not given, nearly all actives have AC50 up to about 30 µM;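 further: cells exposed to compound for 48 hours before readout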); conditions: CellTiter-Glo ATP luminescence
[6] = JHH-DIPG-1 glioma cell viability, MIPE5.0 library, CellTiter-Glo luminescence, qHTS (AID 1347067); conditions: JHH-DIPG-1 glioma viability, CellTiter-Glo ATP luminescence;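 further: cells exposed to compound for 48 hours before readout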
[7] = SU-DIPG-XXV glioma cell viability, MIPE5.0 library, qHTS (AID 1347068; cut-off not given, nearly all actives have IC50 up to about 30 µM;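 on IC50: cells exposed to compound for 48 hours before viability readout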)
[8] = growth inhibition of DIPG glioma cells, dose response, cell-based, SU-DIPG-IV, MIPE4.0, CellTiter-Glo, qHTS (AID 1347063; cut-off not given, nearly all actives have AC50 up to about 30 µM;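 further: compound exposure lasted 48 hours before the viability readout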); conditions: SU-DIPG-IV viability, CellTiter-Glo ATP luminescence
[9] = inhibitors of polyQ aggregate elongation, biochemical, solid-phase synthetic aggregates, QA3 (AID 1585; call rule not given here); conditions: biotin-polyQ incorporation, at 100 µM, stronger effect = higher value
[10] = polyglutamine aggregation reduction, turbidity readout, qthio, single concentration 25 µM screen (AID 1588; call rule not given here); conditions: at 25 µM, stronger effect = lower value
[11] = enhancers of SMN2 over SMN1 splicing, cell-based, SMN2/SMN1 luciferase reporters (AID 1598; call rule not given here); conditions: SMN2 vs SMN1 luciferase splicing reporter cells; at 10 µM; stronger effect = higher value
[12] = target: ATP-dependent translocase ABCB1 (Homo sapiens) (UniProt P08183); assay: MDR1 (ABCB1) efflux transporter inhibition, cell-based (AID 377; in the data active means fluorescence slope change above about 50%; inconclusive means mostly about 31% to 49%); conditions: MDR1-expressing cells, fluorescent substrate accumulation slope; stronger effect = higher value; concentration not given here

**Q.** What does the source list for `O=C1Nc2ccc(Cl)cc2[C@@](C#CC2CC2)(C(F)(F)F)O1`?
**A.** AC50 [1]: inconclusive: 37.2 µM [cytotoxic] and inconclusive: 23.5 µM [cytotoxic]; AC50 [2]: inconclusive: 18.7 µM [cytotoxic]; AC50 [3]: inconclusive: 23.5 µM [cytotoxic] and inconclusive: 37.2 µM [cytotoxic]; AC50 [4]: inconclusive: 37.2 µM [cytotoxic] and inconclusive: 26.3 µM [cytotoxic]; AC50 [5]: inconclusive: 37.2 µM [cytotoxic]; AC50 [6]: inconclusive: 33.2 µM [cytotoxic] and active: 20.9 µM; IC50 [7]: inconclusive: 16.6 µM [cytotoxic] and inconclusive: 23.5 µM [cytotoxic]

**Q.** For `Cc1cc(Nc2ncnc3ccc(-c4ccc(CNCCS(C)(=O)=O)o4)cc23)ccc1Oc1ccn2ncnc2c1`, which AC50 [1] is on record?
**A.** active: 23.5 µM

**Q.** And the AC50 [2]?
**A.** active: 23.5 µM

**Q.** What about the AC50 [3] of the same molecule?
**A.** inconclusive: 18.6 µM [cytotoxic]

**Q.** What about the AC50 [4] of the same molecule?
**A.** active: 16.6 µM

**Q.** What does the source list for `CN[C@@H](C)[C@H]1[C@H](O)C[C@@]2(C)[C@@H]3CC[C@H]4C(C)(C)[C@@H](NC)CC[C@@]45C[C@@]35CC[C@]12C`?
**A.** outcome [1]: inactive; outcome [2]: inactive; AC50 [3]: inconclusive: 0.679 µM; outcome [4]: inactive; outcome [7]: inactive

**Q.** For `Cc1cc(=O)oc2cc(O)ccc12`, which AC50 [1] is on record?
**A.** inconclusive: 0.0661 µM [cytotoxic]

**Q.** And the AC50 [2]?
**A.** active: 0.418 µM

**Q.** What about the AC50 [3] of the same molecule?
**A.** inconclusive: 0.00148 µM [cytotoxic]

**Q.** And the outcome [4]?
**A.** inactive

**Q.** And the outcome [6]?
**A.** inactive

**Q.** And the IC50 [7]?
**A.** inconclusive: 16.6 µM

**Q.** Which AC50 [1] does the source give for `C[N+](C)([O-])CCNc1ccc(NCC[N+](C)(C)[O-])c2c1C(=O)c1c(O)ccc(O)c1C2=O` here?
**A.** active: 9.34 µM

**Q.** And the outcome [2]?
**A.** inactive

**Q.** What about the AC50 [3] of the same molecule?
**A.** inconclusive: 0.372 µM [cytotoxic]

**Q.** And the AC50 [4]?
**A.** inconclusive: 4.17 µM [cytotoxic]

**Q.** What about the AC50 [6] of the same molecule?
**A.** inconclusive: 2.09 µM [cytotoxic]

**Q.** What about the IC50 [7] of the same molecule?
**A.** active: 0.00132 µM

**Q.** For `CN(C)CCCN=c1c2ccccc2n(C)c2[nH]c(=O)n(C)c(=O)c12`, which AC50 [1] is on record?
**A.** active: 29.5 µM

**Q.** What about the AC50 [2] of the same molecule?
**A.** inconclusive: 20.9 µM [cytotoxic]

**Q.** What about the AC50 [3] of the same molecule?
**A.** active: 26.3 µM

**Q.** What about the AC50 [4] of the same molecule?
**A.** inconclusive: 23.5 µM [cytotoxic]

**Q.** And the AC50 [5]?
**A.** inconclusive: 0.00263 µM [cytotoxic]

**Q.** And the AC50 [6]?
**A.** inconclusive: 33.2 µM [cytotoxic]

**Q.** And the IC50 [7]?
**A.** inconclusive: 10.5 µM [cytotoxic]

**Q.** For `Clc1ccc(C(c2ccc(Cl)cc2)n2cc[n+](CC(OCc3ccc(Cl)cc3Cl)c3ccc(Cl)cc3Cl)c2)cc1` (stereo not given), which AC50 [1] is on record?
**A.** active: 2.95 µM

**Q.** And the AC50 [2]?
**A.** active: 23.5 µM

**Q.** And the AC50 [3]?
**A.** active: 2.63 µM

**Q.** What about the AC50 [4] of the same molecule?
**A.** active: 2.35 µM

**Q.** What about the AC50 [5] of the same molecule?
**A.** active: 13.2 µM

**Q.** And the IC50 [7]?
**A.** active: 3.72 µM

**Q.** Which AC50 [1] does the source give for `CCCCCCCCCCCCc1ccc(S(=O)(=O)Nc2nncs2)cc1` here?
**A.** inconclusive: 18.6 µM [cytotoxic]

**Q.** What about the outcome [2] of the same molecule?
**A.** inactive

**Q.** What about the AC50 [3] of the same molecule?
**A.** inconclusive: 16.6 µM [cytotoxic]

**Q.** What about the AC50 [4] of the same molecule?
**A.** inconclusive: 37.2 µM [cytotoxic]

**Q.** What about the AC50 [6] of the same molecule?
**A.** inconclusive: 2.63 µM [cytotoxic]

**Q.** What does the source list for `O=C(NC1CC1)c1cccc(-c2ccc3c(NC(=O)C4CC4)n[nH]c3c2)c1`?
**A.** AC50 [1]: active: 10.5 µM; AC50 [2]: active: 4.69 µM; AC50 [3]: active: 8.33 µM; AC50 [4]: inconclusive: 9.34 µM [cytotoxic]; AC50 [5]: inconclusive: 1.66 µM [cytotoxic]; AC50 [6]: inconclusive: 4.68 µM [cytotoxic]; IC50 [7]: inconclusive: 10.5 µM [cytotoxic]

**Q.** Which results are given for `Cc1cc(OCCCS(C)(=O)=O)cc(C)c1-c1cccc(COc2ccc3c(c2)OC[C@H]3CC(=O)O)c1`?
**A.** outcome [1]: inactive; AC50 [2]: inconclusive: 20.9 µM [cytotoxic]; outcome [3]: inactive; outcome [4]: inactive; AC50 [5]: inconclusive: 23.5 µM [cytotoxic]; outcome [7]: inactive

**Q.** For `O=C(NCCCCN1CCOCC1)c1cc2ccccc2o1`, which AC50 [1] is on record?
**A.** inconclusive: 0.00186 µM

**Q.** And the outcome [2]?
**A.** inactive

**Q.** And the outcome [8]?
**A.** inactive

**Q.** What about the AC50 [6] of the same molecule?
**A.** active: 23.5 µM

**Q.** What about the outcome [7] of the same molecule?
**A.** inactive

**Q.** With `O=C(CC12CC3CC(CC(C3)C1)C2)Nc1cccc2nc(NCCNCCO)ccc12` as the molecule, how does the AC50 [1] read?
**A.** inconclusive: 33.2 µM [cytotoxic]

**Q.** What about the AC50 [2] of the same molecule?
**A.** active: 14.8 µM

**Q.** What about the outcome [3] of the same molecule?
**A.** inactive

**Q.** What about the AC50 [4] of the same molecule?
**A.** inconclusive: 33.2 µM [cytotoxic]

**Q.** And the AC50 [5]?
**A.** inconclusive: 26.4 µM [cytotoxic]

**Q.** And the AC50 [6]?
**A.** inconclusive: 18.6 µM [cytotoxic]

**Q.** And the IC50 [7]?
**A.** inconclusive: 33.2 µM [cytotoxic]

**Q.** For `CC1Cc2ccccc2N1NC(=O)c1ccc(Cl)c(S(N)(=O)=O)c1` (stereo not given), which inhibition [9] is on record?
**A.** inconclusive: 10.5%

**Q.** What about the aggregation (% of control) [10] of the same molecule?
**A.** inconclusive: 129%

**Q.** What about the SMN2/SMN1 luciferase ratio [11] of the same molecule?
**A.** inconclusive: 0.93

**Q.** And the outcome [1]?
**A.** inactive

**Q.** And the outcome [2]?
**A.** inactive

**Q.** And the AC50 [3]?
**A.** inconclusive: 0.00525 µM

**Q.** What about the AC50 [4] of the same molecule?
**A.** inconclusive: 0.00105 µM [cytotoxic]

**Q.** What about the AC50 [5] of the same molecule?
**A.** inconclusive: 23.5 µM [cytotoxic]

**Q.** And the outcome [6]?
**A.** inactive

**Q.** And the outcome [7]?
**A.** inactive

**Q.** With `CC(C)Oc1ccc2c(=O)c(-c3ccccc3)coc2c1` as the molecule, how does the outcome [1] read?
**A.** inactive

**Q.** What about the outcome [2] of the same molecule?
**A.** inactive

**Q.** What about the AC50 [3] of the same molecule?
**A.** inconclusive: 2.09 µM [cytotoxic]

**Q.** What about the AC50 [4] of the same molecule?
**A.** inconclusive: 0.105 µM [cytotoxic]

**Q.** What about the outcome [5] of the same molecule?
**A.** inactive

**Q.** What about the outcome [6] of the same molecule?
**A.** inactive

**Q.** What about the outcome [7] of the same molecule?
**A.** inactive

**Q.** With `CC(=O)[C@H]1CC[C@H]2[C@@H]3CC=C4C[C@@H](O)CC[C@]4(C)[C@H]3CC[C@]12C` as the molecule, how does the fluorescence slope change [12] read?
**A.** inconclusive: 40.9%

**Q.** What about the outcome [1] of the same molecule?
**A.** inactive

**Q.** What about the outcome [2] of the same molecule?
**A.** inactive

**Q.** And the outcome [3]?
**A.** inactive

**Q.** And the AC50 [4]?
**A.** inconclusive: 11.8 µM [cytotoxic]

**Q.** And the outcome [5]?
**A.** inactive

**Q.** What about the outcome [6] of the same molecule?
**A.** inactive
